# These are yes or no findings as the source states them, for the method shown. Some results given as binding are weak or reduced against the parent protein; the word gives no strength. Where a sequence is shown, tags or fusion partners need not be part of it.
# T1: TOPLESS (TPL) of Arabidopsis, yeast two-hybrid fusion (Arabidopsis thaliana), Q94AI7
# T1 chain: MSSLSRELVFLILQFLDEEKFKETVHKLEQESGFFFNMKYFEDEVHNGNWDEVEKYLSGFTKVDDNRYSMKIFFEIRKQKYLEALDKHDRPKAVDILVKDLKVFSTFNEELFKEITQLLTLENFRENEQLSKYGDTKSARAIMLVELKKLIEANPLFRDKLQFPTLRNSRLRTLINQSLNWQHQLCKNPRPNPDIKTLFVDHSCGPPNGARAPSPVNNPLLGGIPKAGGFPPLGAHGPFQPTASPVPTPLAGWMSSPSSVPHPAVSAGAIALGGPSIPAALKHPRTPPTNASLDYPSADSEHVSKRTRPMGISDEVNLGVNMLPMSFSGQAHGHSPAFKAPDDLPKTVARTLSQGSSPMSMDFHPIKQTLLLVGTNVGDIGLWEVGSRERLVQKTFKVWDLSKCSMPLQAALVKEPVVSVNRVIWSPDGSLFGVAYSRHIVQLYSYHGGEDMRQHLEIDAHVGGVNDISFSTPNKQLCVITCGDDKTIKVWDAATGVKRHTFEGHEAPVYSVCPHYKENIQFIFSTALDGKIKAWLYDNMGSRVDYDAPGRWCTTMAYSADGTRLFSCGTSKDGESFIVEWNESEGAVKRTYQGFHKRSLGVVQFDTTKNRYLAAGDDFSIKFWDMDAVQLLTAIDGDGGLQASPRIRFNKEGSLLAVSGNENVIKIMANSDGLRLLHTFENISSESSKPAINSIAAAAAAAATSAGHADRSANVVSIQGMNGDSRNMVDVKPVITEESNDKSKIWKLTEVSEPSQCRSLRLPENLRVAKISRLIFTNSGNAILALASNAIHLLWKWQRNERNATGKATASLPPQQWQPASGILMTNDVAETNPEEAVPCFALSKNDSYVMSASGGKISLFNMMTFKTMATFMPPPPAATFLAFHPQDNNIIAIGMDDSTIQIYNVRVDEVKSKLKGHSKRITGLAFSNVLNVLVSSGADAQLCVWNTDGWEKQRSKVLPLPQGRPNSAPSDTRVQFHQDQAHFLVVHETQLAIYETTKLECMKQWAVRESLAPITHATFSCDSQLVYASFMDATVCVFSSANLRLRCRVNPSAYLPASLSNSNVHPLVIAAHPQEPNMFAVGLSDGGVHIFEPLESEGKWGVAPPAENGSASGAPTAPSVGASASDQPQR
# B1: TOPLESS (TPL) of Arabidopsis, yeast two-hybrid fusion, Q94AI7 1-1131 (protein)
# chain: T1 chain
# Target: T1, TOPLESS (TPL) of Arabidopsis, yeast …
# Assay: two-hybrid; Gal4 AD-X (yeast Y8800) and DB-X (Y8930) fusions mated; growth on SC media lacking Leu, Trp and His (3AT for stringency) or also Ade; tested in both directions
# Details: remark: other sources report otherwise
binder,measurement,value
B1,binding,binds

# — paper PMC7446885
